Consider one substance from PMC3319607.

Amino acid sequences for entries named in this document (tags omitted).
UniProt P70315: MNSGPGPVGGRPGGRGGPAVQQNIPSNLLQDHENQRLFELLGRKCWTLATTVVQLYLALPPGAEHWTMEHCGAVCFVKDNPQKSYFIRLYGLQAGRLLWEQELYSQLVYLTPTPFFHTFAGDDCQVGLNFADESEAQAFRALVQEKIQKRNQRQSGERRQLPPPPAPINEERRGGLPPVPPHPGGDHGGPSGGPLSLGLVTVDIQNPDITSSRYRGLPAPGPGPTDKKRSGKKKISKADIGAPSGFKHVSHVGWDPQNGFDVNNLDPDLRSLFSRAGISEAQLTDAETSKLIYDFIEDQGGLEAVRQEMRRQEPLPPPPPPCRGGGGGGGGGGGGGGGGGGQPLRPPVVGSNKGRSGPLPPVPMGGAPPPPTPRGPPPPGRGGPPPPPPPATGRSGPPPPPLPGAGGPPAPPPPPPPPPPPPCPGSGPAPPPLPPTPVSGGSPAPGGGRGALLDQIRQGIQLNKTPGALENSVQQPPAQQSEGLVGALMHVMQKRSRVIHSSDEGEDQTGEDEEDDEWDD
UniProt Q8K1I7: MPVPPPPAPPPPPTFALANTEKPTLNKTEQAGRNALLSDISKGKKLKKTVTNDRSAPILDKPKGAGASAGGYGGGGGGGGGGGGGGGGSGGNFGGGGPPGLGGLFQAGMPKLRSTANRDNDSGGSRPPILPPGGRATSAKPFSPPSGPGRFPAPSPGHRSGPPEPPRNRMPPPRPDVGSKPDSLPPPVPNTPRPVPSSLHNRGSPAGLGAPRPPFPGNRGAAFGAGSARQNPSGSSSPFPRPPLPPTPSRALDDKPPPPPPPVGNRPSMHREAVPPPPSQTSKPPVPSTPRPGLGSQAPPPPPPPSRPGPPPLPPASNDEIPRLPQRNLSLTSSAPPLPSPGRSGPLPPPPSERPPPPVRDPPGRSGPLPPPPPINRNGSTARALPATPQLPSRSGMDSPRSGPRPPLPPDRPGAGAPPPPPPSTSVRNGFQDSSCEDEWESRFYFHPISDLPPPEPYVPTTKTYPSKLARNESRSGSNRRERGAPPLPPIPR

The target of this assay is Wiskott-Aldrich syndrome protein (WASP), native, in RAW 264.7 cell lysate (mouse (endogenous in RAW 264.7)) (UniProt P70315). Nature of the assay: co-IP; RAW264.7 lysate (RIPA buffer) incubated with S01 anti-WASP-scFv silk powder (RT, 60 min, five TBST washes) or with anti-WASP mAb on protein G-sepharose; blot with anti-WASP pAb and anti-WIP pAb.

These are yes or no findings as the source states them, for the method shown. In cells and extracts the contact can be indirect. Some entries that bind do so weakly or less than the wild type.

Regarding “WASP-interacting protein (WIP), native, in RAW 264.7 cell lysate (from UniProt Q8K1I7 1-493)”, the binding result is on record as “binds”.
